Results of single-concentration screens

Chains of the proteins cited; added tags and fusions are not shown. Residues count along the entry.
UniProt P9WFT3, whole entry: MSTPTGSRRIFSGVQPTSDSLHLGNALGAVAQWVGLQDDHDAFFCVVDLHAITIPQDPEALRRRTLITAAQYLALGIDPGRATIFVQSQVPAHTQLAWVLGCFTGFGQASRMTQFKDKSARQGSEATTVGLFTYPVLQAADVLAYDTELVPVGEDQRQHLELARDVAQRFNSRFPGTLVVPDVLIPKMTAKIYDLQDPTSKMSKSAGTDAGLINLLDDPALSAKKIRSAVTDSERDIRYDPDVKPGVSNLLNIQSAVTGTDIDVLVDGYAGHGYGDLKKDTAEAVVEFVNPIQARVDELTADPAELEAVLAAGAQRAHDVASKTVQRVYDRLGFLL
UniProt P9WPC5, whole entry: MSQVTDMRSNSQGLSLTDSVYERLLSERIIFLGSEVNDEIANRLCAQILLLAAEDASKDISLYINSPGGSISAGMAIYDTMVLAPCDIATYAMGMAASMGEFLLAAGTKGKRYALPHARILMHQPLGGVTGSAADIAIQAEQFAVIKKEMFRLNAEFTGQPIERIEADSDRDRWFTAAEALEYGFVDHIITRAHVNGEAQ
UniProt P9WPC3, whole entry partner: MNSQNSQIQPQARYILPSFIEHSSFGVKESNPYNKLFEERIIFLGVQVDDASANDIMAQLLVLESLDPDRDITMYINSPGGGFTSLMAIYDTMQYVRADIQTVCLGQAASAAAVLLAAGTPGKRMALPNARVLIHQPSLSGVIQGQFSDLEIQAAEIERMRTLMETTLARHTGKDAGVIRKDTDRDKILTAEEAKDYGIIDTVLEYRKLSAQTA
UniProt Q4DA54, 1-478: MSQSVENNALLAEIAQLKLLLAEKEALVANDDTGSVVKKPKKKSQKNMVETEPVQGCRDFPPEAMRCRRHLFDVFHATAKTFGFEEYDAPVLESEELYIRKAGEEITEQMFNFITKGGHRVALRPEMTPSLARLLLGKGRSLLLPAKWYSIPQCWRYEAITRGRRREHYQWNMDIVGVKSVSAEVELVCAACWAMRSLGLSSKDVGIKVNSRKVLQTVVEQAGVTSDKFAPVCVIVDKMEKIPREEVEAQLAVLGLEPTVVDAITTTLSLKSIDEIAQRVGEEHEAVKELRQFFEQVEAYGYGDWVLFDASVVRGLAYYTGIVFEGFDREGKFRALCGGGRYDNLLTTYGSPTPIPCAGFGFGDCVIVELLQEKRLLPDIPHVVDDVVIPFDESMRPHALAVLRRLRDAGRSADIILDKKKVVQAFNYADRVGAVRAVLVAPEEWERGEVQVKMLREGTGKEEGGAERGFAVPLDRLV

Data taken from ChEMBL document CHEMBL3988442, “University of Dundee, Small-Polar-MMV Screening Library” (2021).

Results are given as percent effect.
How 0% and 100% were set is not recorded. Most values in the screen are low, and negative values occur.
This is an unselected part of the compounds tested.
A dash means the value is not listed here; it may have been measured.

MtTrpRS: 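Enzyme assay of tryptophanyl-tRNA synthetase; the read-out is not stated. Target: Tryptophan-tRNA ligase, Mycobacterium tuberculosis (UniProt P9WFT3). Tested at 10 µM. Direction is not recorded; retested compounds ran higher, which suggests that high means inhibition. Of about 65,000 compounds tested this way, about 64 (0.098%) reached 50% or more in at least one test.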
ClpP1P2: 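ClpP1P2, Mycobacterium tuberculosis (UniProt P9WPC5 and UniProt P9WPC3). Protease assay of ClpP1P2, read by the AMC dye that it sets free. Tested at 50 µM. Direction is inferred from only a few compounds that gave an IC50; most scored high, so higher reads as stronger inhibition. Most other retested compounds had strongly negative values. Size under these conditions: about 69,000 compounds, about 10 of them at 50% or above in at least one test.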
TcHisRS: 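Enzyme assay of histidyl-tRNA synthetase; the read-out is not stated. Target: Histidine-tRNA ligase, Trypanosoma cruzi CL Brener (UniProt Q4DA54). Concentration: 30 µM. Direction is inferred from retests: higher values go with stronger inhibition. Size under these conditions: about 69,000 compounds, about 31 of them at 50% or above in at least one test.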

| # | SMILES | MtTrpRS | ClpP1P2 | TcHisRS |
|---|---|---|---|---|
| 1 | `CN(C)Cc1cc(-c2nccn2CCc2cccnc2)ccc1O` | -6.965% | -3.972% | 3.911% |
| 2 | `CCOCC(=O)N1CCC2(CC1)COCCN2CCOC` | -3.66% | 0.6121% | 4.598% |
| 3 | `CC(SCc1ccc(Br)c2cccnc12)C(N)=O` (stereo not given) | 3.964% | -11.14% | -4.615% |
| 4 | `Cc1ccc(C2CN(Cc3cnc(-c4cccnc4)s3)CCO2)o1` (stereo not given) | 2.348% | -2.195% | 6.358% |
| 5 | `c1cc(NC2CC3(CCN(Cc4cc[nH]n4)C3)C2)ncn1` (stereo not given) | -0.2508% | -5.874% | 0.5405% |
| 6 | `CCn1ccnc1CN1CCN(Cc2cc(C#N)ccc2F)CC1` | 2.903% | -21.05% | 5.539% |
| 7 | `COc1c[nH]c(C(=O)Nc2nc(C)cs2)cc1=O` | 3.151% | -6.339% | 2.924% |
| 8 | `CNC(=O)[C@H]1C[C@@H]2CN(S(=O)(=O)Cc3ccccc3)C[C@@H]2N1C` | 4.882% | -2.693% | 6.863% |
| 9 | `O=c1c(CN2CC3CCCN3C[C@@H]2CCO)coc2ccc(Cl)cc12` (stereo not given in full) | -5.114% | -27.2% | 6.061% |
| 10 | `CC(C)C(=O)N1CCOC[C@H](Oc2ccc(C(F)(F)F)cc2)C1` | 2.2% | -3.672% | 3.261% |
| 11 | `O=C(O)Cc1cccc(-n2ccnc2-c2ccc(F)c(Cl)c2)c1` | 3.236% | -7.488% | 9.827% |
| 12 | `CNC(=O)c1sc2ccccc2c1CC1CCCCN1Cc1ncc[nH]1` (stereo not given) | -8.293% | -6.307% | 7.576% |
| 13 | `Cc1cc(Br)cnc1N(C)CC1CCOC1` (stereo not given) | -4.129% | -10.02% | 3.03% |
| 14 | `Cc1ccc(N2C[C@H](C)[C@]3(CCN(c4cccnc4)C3=O)C2)nn1` | - | -9.778% | -1.111% |
| 15 | `CN(C)c1ncccc1CNS(=O)(=O)c1ccc(F)c(F)c1` | -1.146% | -10.59% | 6.857% |
| 16 | `CCC(CC)c1cc(CNC(=O)N2CCCC(c3ncc[nH]3)C2)on1` (stereo not given) | -0.6157% | 4.963% | 4.651% |
| 17 | `Cc1nn(C)c(C)c1CC(=O)N1CCC(N(C)c2cccnn2)CC1` | -4.245% | 20.34% | 1.141% |
| 18 | `Cc1cnn(C2CCCN(C(=O)c3cn4cccnc4n3)C2)c1` (stereo not given) | -1.8% | 3.11% | 6.015% |
| 19 | `Cc1ccc(C2COCCN2C(=O)c2ccc(CN(C)C)cc2)o1` (stereo not given) | 0.3552% | -20.53% | 2.075% |
| 20 | `COCC1COCCC12CCN(C(=O)Cc1ccc(F)cc1)CC2` (stereo not given) | 1.66% | -15.22% | 6.098% |
| 21 | `COCCn1cnc(-c2nc(C(=O)N3CCOCC3)c3ccccn23)c1` | 7.811% | -208.8% | 1.961% |
| 22 | `Cc1csc(C2CCCN(C(=O)c3ccc(=O)n(C)n3)C2)n1` (stereo not given) | 1.174% | -20.04% | -0.8475% |
| 23 | `OC(CN1CCCCCCC1)c1ccc(OC(F)(F)F)cc1` (stereo not given) | -2.119% | -24.67% | 3.198% |
| 24 | `COc1ccc(NC(C)c2nnnn2-c2ccccc2)cc1F` (stereo not given) | 6.812% | -3.334% | 0.6135% |
| 25 | `CNc1nc(N2CCN(C3CCCCC3)C(CCO)C2)nc2c1CCC2` (stereo not given) | 3.016% | 7.153% | 2.463% |
| 26 | `COC(=O)COc1cccc(NS(=O)(=O)c2cc(C(=O)O)cs2)c1` | -0.3712% | 31.41% | -0.7634% |
| 27 | `Cc1cc2ccccc2n1CCC(=O)NCCCc1nnc(N)s1` | -3.437% | -13.36% | 3.125% |
| 28 | `Cc1noc(C)c1CN1CCCC2(CCN(C(=O)N3CCOCC3)C2)C1` (stereo not given) | -3.98% | -10.31% | 0.4808% |
| 29 | `O=C(C1=CCCC1)N1C[C@H](OCc2cccnc2)[C@H]2OCCC[C@H]21` | 0.6509% | -2.3% | 2.941% |
| 30 | `CCC(NCc1ccccn1)c1ccccc1OCC(=O)NC` (stereo not given) | -2.961% | -4.608% | -1.053% |
| 31 | `COCCN(C(=O)c1cc(C)no1)c1ccc(C#N)cc1` | -1.262% | -4.031% | 3.922% |
| 32 | `Cc1cc(C(=O)N2CCc3ncnc(N4CCSCC4)c3CC2)[nH]n1` | 0.9272% | 0.2645% | 6.627% |
| 33 | `CCCOc1ccc(OCCN2CCOCS2(=O)=O)cc1` | -4.775% | -0.4485% | 5.844% |
| 34 | `CN1CC(Nc2ccc(Br)cc2C#N)CCC1=O` (stereo not given) | -3.64% | -17.64% | 1.622% |
| 35 | `CSc1cc2c(cc1NC(=O)NCCn1ccnc1)OCCO2` | -8.678% | 4.528% | 2.174% |
| 36 | `CCOc1ccccc1OCCN(C)Cc1ncnn1CC` | -1.027% | -15.91% | 1.266% |
| 37 | `COC(=O)c1ccoc1CN(C)CC(=O)N(C)C` | 6.785% | -2.188% | 6% |
| 38 | `COCCCNC(=O)C(C)n1cc(Br)cn1` (stereo not given) | -0.5735% | -2.992% | 3.509% |
| 39 | `Cc1nc(CCN(C)C(=O)C2COc3ccccc3C2)no1` (stereo not given) | 5.054% | -7.623% | 0.8368% |
| 40 | `CCc1nc2ccccc2c(=O)n1CC1(O)CCN(C(=O)COC)CC1` | - | 0.4916% | 2.128% |
| 41 | `COc1ncc(CN2CCC3(CCNC(=O)CC3)CC2)cn1` | 2.592% | -4.625% | 2.646% |
| 42 | `COc1cc(NCc2ccncc2)c(-c2nn[nH]n2)cc1OC` | 4.838% | -34.74% | 3.125% |
| 43 | `O=C(c1ccnnc1)N1C[C@H](OCc2ccccn2)[C@H]2COC[C@H]21` | -1.046% | 0.4463% | 4.132% |
| 44 | `O=C(NCCNCC1CNc2ccnn2C1)c1ccc(F)cc1` (stereo not given) | 1.625% | -6.189% | 0.8333% |
| 45 | `Cc1nc(CN2CCC3(CCCO3)CCC2=O)no1` (stereo not given) | -4.608% | 5.696% | -18.99% |
| 46 | `CC(C)CNC(=O)[C@H]1C[C@@H]2CN(Cc3cccnc3)C[C@H]1O2` | -0.2907% | 0.2508% | 4.908% |
| 47 | `CC(C)(NCc1cccc(O)c1)c1ccc2c(c1)OCO2` | -4.563% | -1.37% | 2.941% |
| 48 | `CC(=O)N1N=C(c2ccco2)OC1C(=O)N(CC(C)C)CC(C)C` (stereo not given) | - | 1.246% | 6.818% |
| 49 | `CC(O)CN1CC(C)(C)CN(C(=O)CCc2ccccc2)CC1=O` (stereo not given) | - | 11.04% | 12.36% |
| 50 | `CC(CO)(NC(=O)Nc1nnc(C(F)F)s1)C1CC1` (stereo not given) | 1.574% | 11.74% | -4.202% |
| 51 | `NC(=O)CCn1ccc(NC(=O)c2ccc(Br)o2)n1` | 2.114% | -3.602% | 8.247% |
| 52 | `COc1cc2cc(C(=O)N[C@@H](C)C(=O)O)n(C)c2c(OC)c1OC` | 2.01% | -8.059% | -2.732% |
| 53 | `CCN(CC)C1CCN(C(=O)NCc2cccc(NC(C)=O)c2)C1` (stereo not given) | 0.4599% | -1.361% | 0.4425% |
| 54 | `COc1cccc(C2C3=C(COC3=O)Nc3[nH]nc(C)c32)c1O` (stereo not given) | -1.273% | 12.49% | -3.409% |
| 55 | `N#Cc1ccc(N2CCCN(CCCn3cncn3)CC2)cc1` | -0.3974% | 13.26% | 10.24% |
| 56 | `CSCC(=O)N1CCc2c(cnc(C)c2-c2noc(-c3cscn3)n2)C1` | 3.511% | -10.26% | 4.103% |
| 57 | `O=C(NCC1CCN(Cc2ccsc2)CC1)NC1CC1` | -4.079% | -13.42% | 3.261% |
| 58 | `COc1ccccc1NC(=O)CCNC(=O)c1ccoc1` | 2.949% | 10.36% | -0.5291% |
| 59 | `CC(=O)NC1CCCN(C(=O)NCc2cccnc2N(C)C)C1` (stereo not given) | 1.943% | 2.192% | -3.396% |
| 60 | `CCOCCCC(=O)NC1CCN(C(C)c2ccccc2)CC1` (stereo not given) | -8.513% | -13.65% | 12.07% |
| 61 | `NC(=O)c1cncc(-n2ccc(-c3cnccn3)n2)c1` | -1.505% | -17.51% | 0.9804% |
| 62 | `Nc1nc(CC(=O)N2CCCC(CCc3cccc(F)c3)C2)cc(=O)[nH]1` (stereo not given) | 0.784% | 25.76% | 2.609% |